Assay results published in the supplement of paper PMC10849652.
The list shows a part of the results.

Protein sequences, listed by entry. Tags and fused reporters are not part of them. Lines headed by an entry give the natural chain unless they say otherwise; changes in a name come on top.
UniProt Q96PZ0: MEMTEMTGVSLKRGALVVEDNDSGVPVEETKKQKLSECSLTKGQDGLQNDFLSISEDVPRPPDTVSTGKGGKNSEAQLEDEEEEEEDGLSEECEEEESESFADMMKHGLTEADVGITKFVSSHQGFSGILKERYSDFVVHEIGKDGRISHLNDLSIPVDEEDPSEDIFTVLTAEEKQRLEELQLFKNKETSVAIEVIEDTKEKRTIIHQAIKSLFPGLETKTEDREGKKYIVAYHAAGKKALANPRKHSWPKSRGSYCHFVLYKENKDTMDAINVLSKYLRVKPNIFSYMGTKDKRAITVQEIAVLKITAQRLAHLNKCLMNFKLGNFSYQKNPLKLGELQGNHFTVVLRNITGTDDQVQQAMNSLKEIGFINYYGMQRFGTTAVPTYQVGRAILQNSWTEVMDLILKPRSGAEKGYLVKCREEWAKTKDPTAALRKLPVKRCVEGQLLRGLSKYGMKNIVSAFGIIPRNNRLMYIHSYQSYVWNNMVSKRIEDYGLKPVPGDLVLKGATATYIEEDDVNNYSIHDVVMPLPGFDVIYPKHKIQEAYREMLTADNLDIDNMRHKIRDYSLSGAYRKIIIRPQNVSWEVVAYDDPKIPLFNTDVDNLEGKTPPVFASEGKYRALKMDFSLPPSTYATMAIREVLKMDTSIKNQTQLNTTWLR
UniProt P79522: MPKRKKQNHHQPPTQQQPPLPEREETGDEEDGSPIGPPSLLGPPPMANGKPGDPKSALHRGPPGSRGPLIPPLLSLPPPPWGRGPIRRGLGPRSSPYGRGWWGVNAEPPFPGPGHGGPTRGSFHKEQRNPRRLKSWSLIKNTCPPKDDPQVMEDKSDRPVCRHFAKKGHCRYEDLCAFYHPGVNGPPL
UniProt Q8WUK0: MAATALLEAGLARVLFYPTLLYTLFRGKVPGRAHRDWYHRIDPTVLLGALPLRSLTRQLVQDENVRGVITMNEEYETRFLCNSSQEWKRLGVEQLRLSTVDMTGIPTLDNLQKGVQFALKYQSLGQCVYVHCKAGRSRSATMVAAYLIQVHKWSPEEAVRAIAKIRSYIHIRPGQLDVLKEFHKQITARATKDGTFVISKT
UniProt Q12974: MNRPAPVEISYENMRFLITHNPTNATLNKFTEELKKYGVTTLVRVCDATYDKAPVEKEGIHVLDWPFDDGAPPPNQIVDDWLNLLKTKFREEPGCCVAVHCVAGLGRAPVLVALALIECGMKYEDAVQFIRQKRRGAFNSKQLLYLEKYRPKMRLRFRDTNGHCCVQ
UniProt Q99460, whole entry, looked up: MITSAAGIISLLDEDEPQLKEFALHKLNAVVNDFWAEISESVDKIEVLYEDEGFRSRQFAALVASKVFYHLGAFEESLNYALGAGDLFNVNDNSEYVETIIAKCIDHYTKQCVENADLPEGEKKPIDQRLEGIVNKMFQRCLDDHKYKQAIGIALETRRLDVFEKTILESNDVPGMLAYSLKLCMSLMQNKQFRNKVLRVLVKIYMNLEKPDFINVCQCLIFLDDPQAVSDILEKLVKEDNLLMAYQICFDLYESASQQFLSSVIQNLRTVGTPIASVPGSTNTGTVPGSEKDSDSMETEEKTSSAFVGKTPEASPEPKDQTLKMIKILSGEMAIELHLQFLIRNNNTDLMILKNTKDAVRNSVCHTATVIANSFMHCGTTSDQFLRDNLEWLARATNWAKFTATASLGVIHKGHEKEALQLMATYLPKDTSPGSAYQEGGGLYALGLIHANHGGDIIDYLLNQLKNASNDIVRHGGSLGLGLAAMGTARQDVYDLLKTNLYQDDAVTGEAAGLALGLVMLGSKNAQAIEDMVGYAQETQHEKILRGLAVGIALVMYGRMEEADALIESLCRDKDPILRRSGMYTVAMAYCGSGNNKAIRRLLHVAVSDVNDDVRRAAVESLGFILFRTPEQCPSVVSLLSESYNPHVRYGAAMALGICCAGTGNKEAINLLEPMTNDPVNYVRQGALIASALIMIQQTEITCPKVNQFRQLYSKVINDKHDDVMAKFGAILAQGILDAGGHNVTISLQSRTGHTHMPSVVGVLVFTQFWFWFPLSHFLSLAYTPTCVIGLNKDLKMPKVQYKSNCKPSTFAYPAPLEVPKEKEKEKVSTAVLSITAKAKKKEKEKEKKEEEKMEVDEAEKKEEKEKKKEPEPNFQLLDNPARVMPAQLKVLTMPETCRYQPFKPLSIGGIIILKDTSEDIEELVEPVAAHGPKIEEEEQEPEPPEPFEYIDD
UniProt Q9Y3E5: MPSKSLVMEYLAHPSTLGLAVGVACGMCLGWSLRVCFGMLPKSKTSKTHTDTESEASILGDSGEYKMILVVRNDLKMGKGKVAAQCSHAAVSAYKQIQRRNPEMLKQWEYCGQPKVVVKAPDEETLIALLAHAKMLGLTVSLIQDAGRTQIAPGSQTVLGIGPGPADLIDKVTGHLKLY
UniProt Q9UL46, whole entry, looked up: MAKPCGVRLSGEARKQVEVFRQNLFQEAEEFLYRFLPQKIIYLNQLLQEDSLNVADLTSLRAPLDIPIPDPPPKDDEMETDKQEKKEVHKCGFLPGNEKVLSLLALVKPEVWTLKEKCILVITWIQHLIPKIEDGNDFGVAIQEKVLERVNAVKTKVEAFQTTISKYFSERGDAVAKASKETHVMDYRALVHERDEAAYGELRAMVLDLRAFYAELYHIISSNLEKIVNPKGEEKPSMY
UniProt O14818: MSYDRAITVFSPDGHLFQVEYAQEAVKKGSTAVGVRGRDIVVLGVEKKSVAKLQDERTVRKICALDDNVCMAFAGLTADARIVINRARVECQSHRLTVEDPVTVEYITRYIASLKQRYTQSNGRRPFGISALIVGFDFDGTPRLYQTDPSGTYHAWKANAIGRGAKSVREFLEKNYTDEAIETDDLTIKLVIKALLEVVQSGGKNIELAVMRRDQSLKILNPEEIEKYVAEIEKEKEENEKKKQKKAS
UniProt Q9BRX8: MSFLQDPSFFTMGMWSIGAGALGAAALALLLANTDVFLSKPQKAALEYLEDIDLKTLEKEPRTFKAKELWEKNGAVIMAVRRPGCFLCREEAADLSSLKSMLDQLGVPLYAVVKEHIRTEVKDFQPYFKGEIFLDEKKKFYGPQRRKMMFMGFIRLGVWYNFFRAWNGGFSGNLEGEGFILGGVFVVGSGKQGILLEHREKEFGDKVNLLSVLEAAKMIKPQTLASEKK

How the values were obtained:
Test in all cases: log2 fold change, soluble protein after heating vs DMSO (PISA); higher = thermal stabilisation; K562 lysate, 10 uM; active = over 0.2 and 3.5 SD of the protein, either way, in both replicates (recomputed)
nilotinib = compound: Cc1cn(-c2cc(NC(=O)c3ccc(C)c(Nc4nccc(-c5cccnc5)n4)c3)cc(C(F)(F)F)c2)cn1 [nilotinib]
How it was run: (§1)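 Following dounce homogenisation of K562 pellets in PBS pH 7.4 with 1 mM MgCl2, crude extract at 1 mg/mL protein was incubated for 30 min with 10 μM compound. Aliquots were then heated for 3 min over 48°C-58°C and pooled, NP-40 was added to 0.5% at 4°C, and soluble protein was recovered as the supernatant at 21,000xg for 90 min. Channel-sum-equalised TMTpro 16plex LC-MS/MS quantified this protein. Each value, from duplicates, is a log-two fold change in thermal stability relative to solvent controls.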

[1] = compound: Cc1nc(Nc2n[nH]c3c2CN(C(=O)N[C@H](CN(C)C)c2ccccc2)C3(C)C)c2sccc2n1
How it was run: as §1

dasatinib = compound: Cc1nc(Nc2ncc(C(=O)Nc3c(C)cccc3Cl)s2)cc(N2CCN(CCO)CC2)n1 [dasatinib]
How it was run: as §1

[2] = compound: Cc1ncc(-c2ccnc(Nc3ccc(S(C)(=O)=O)cc3)n2)n1C(C)C
How it was run: as §1

[3] = compound: Cn1cc(-c2ccc3c(c2)CCN3C(=O)Cc2cccc(C(F)(F)F)c2)c2c(N)ncnc21
How it was run: as §1

quisinostat = compound: Cn1cc(CNCC2CCN(c3ncc(C(=O)NO)cn3)CC2)c2ccccc21 [quisinostat]
How it was run: as §1

tipifarnib = compound: Cn1cncc1[C@@](N)(c1ccc(Cl)cc1)c1ccc2c(c1)c(-c1cccc(Cl)c1)cc(=O)n2C [tipifarnib]
How it was run: as §1

[4] = compound: NC(=O)Nc1cc(-c2cccc(F)c2)sc1C(=O)N[C@H]1CCCNC1
How it was run: as §1

[5] = compound: NC(=O)c1cnc(N[C@@H]2CCCC[C@@H]2N)nc1Nc1cccc(-n2nccn2)c1
How it was run: as §1

[6] = compound: NC1(c2ccc(-c3nc4ccn5c(=O)[nH]nc5c4cc3-c3ccccc3)cc2)CCC1
How it was run: as §1

[7] = compound: NCC(=O)Nc1ccc(-n2nc(C(F)(F)F)cc2-c2ccc3c(ccc4ccccc43)c2)cc1
How it was run: as §1

vorinostat = compound: O=C(CCCCCCC(=O)Nc1ccccc1)NO [vorinostat]
How it was run: as §1

silmitasertib = compound: O=C(O)c1ccc2c(c1)nc(Nc1cccc(Cl)c1)c1ccncc12 [silmitasertib]
How it was run: as §1

[8] = compound: O=C1NC(=O)C(c2cnc3ccccn23)=C1c1cn2c3c(cc(F)cc13)CN(C(=O)N1CCCCC1)CC2
How it was run: as §1

entospletinib = compound: c1cn2cc(-c3ccc4cn[nH]c4c3)nc(Nc3ccc(N4CCOCC4)cc3)c2n1 [entospletinib]
How it was run: as §1

Measured: log2 fold change

PUS7 isoform 2 (UniProt Q96PZ0)
inactive: nilotinib 0 | [1] -0.009 | dasatinib -0.004 | [2] -0.002 | [3] -0.012 | quisinostat -0.008 | tipifarnib 0.016 | [4] -0.003 | [5] -0.027 | [6] -0.007 | [7] 0.023 | vorinostat 0.02 | silmitasertib -0.019 | [8] 0.011 | entospletinib -0.007

PRR3 (UniProt P79522)
inactive: nilotinib -0.107 | [1] -0.085 | [2] -0.074 | quisinostat -0.12 | tipifarnib 0.077 | [4] 0.095 | [5] -0.057 | [7] 0.228 | [8] -0.018

PTPMT1 (UniProt Q8WUK0)
inactive: nilotinib 0.037 | [1] 0.147 | dasatinib -0.055 | [2] -0.124 | [3] 0.056 | quisinostat -0.037 | tipifarnib -0.109 | [4] 0.174 | [5] -0.01 | [6] -0.056 | [7] -0.091 | vorinostat -0.159 | silmitasertib 0.015 | [8] -0.031 | entospletinib 0.048

PTP4A2 (UniProt Q12974)
inactive: nilotinib 0.126 | [1] -0.007 | dasatinib 0.098 | [2] 0.14 | [3] -0.017 | quisinostat 0.031 | tipifarnib -0.01 | [4] -0.067 | [5] -0.021 | [6] 0.038 | [7] -0.042 | vorinostat 0.004 | silmitasertib -0.02 | [8] -0.085 | entospletinib 0.043

PSMD1 (UniProt Q99460)
inactive: nilotinib -0.016 | [1] 0.021 | dasatinib 0.027 | [2] 0.001 | [3] -0.008 | quisinostat -0.043 | tipifarnib -0.021 | [4] 0.016 | [5] 0.003 | [6] -0.015 | [7] 0 | vorinostat 0.037 | silmitasertib 0.017 | [8] -0.006 | entospletinib -0.005

PTRH2 (UniProt Q9Y3E5)
inactive: nilotinib 0.007 | [1] 0.043 | dasatinib 0.028 | [2] 0.031 | [3] -0.012 | quisinostat -0.147 | tipifarnib 0.004 | [4] 0.024 | [5] 0.02 | [6] 0.026 | [7] -0.008 | vorinostat -0.023 | silmitasertib 0 | [8] 0.06 | entospletinib -0.007

PSME2 (UniProt Q9UL46)
inactive: nilotinib -0.021 | [1] -0.008 | dasatinib -0.016 | [2] -0.035 | [3] -0.05 | quisinostat -0.001 | tipifarnib -0.021 | [4] -0.009 | [5] 0.017 | [6] 0.009 | [7] 0 | vorinostat 0.052 | silmitasertib -0.004 | [8] 0.004 | entospletinib -0.019

PSMA7 isoform 2 (UniProt O14818)
inactive: nilotinib -0.093 | [1] -0.013 | dasatinib -0.104 | [2] -0.272 | [3] 0.176 | quisinostat -0.545 | tipifarnib -0.025 | [4] -0.323 | [8] -0.314 | entospletinib -0.057

PRXL2A (UniProt Q9BRX8)
inactive: nilotinib 0.116 | [1] -0.051 | dasatinib -0.012 | [2] 0.042 | [3] -0.023 | tipifarnib -0.16 | [6] -0.122 | vorinostat 0.163 | silmitasertib -0.169
